Screening data, single-dose tests

The chains behind the UniProt entries cited, without tags or fusion partners. Residues count along the entry.
UniProt A4I591, 1-473: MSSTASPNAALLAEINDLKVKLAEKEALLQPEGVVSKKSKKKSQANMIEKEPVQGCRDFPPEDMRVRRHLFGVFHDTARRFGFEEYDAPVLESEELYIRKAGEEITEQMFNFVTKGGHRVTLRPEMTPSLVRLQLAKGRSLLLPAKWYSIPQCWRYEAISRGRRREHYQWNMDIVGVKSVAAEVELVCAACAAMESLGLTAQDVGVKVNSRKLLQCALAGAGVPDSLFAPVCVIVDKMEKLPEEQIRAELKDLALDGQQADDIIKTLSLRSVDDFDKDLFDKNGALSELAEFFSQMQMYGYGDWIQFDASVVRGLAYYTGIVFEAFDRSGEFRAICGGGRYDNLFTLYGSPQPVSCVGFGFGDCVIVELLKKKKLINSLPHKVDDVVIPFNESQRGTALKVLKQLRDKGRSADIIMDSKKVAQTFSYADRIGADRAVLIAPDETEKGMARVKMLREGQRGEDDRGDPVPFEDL

The values are deposited in ChEMBL (CHEMBL3988442, “University of Dundee, Small-Polar-MMV Screening Library” (2021)).

Each number is a percent effect as filed. The record does not define 0% and 100%; most values in the screen are far below 50% and negative numbers occur (in some assays of this library far below -100). Compounds were drawn at random from those tested, without regard to their results.

A: 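Histidine-tRNA ligase, Leishmania infantum (UniProt A4I591). Enzyme assay of histidyl-tRNA synthetase; the read-out is not stated. Concentration: 30 µM. Direction is inferred from retests: higher values go with stronger inhibition. The assay is labelled LdHisRS but filed under L. infantum. Size under these conditions: about 69,000 compounds, about 410 of them at 50% or above in at least one test.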
B: 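Assay of Toxoplasma gondii numbers, read through their beta-galactosidase reporter with a colour substrate. Tested at 10 µM. The record gives no direction; the compounds picked for IC50 retests had high values, so higher reads as fewer parasites. Of about 67,000 compounds tested this way, about 260 (0.38%) reached 50% or more in at least one test.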

{"smiles": "[H][C@@]12CN(C(=O)c3ccsc3)C[C@]1([H])C(=O)N(Cc1cccc(F)c1)C2", "B": 0.9014}
{"smiles": "Cc1cc(Br)ccc1NCc1ccc(C(=O)N(C)C)[nH]1", "A": -6.306, "B": -0.7955}
{"smiles": "CC(=O)NCc1cc(-c2cccs2)n(C2CCCC2)n1", "A": 4.348, "B": 5.388}
{"smiles": "CC(=O)NCC(=O)N1Cc2cnc(CC(C)C)nc2C1", "A": 10.83, "B": -17.23}
{"smiles": "O=C(c1cc(=O)n(-c2ccccc2)[nH]1)N1CCOCC(O)C1", "stereo": "stereo not given", "A": 6.195, "B": 2.473}
{"smiles": "Cc1ccccc1-c1cncc(C2CCN(C3CCOCC3)CC2)n1", "A": 5.208, "B": -21.6}
{"smiles": "COCc1ccc(C(=O)N2CCN(CCS(C)(=O)=O)CC2)cc1", "A": 11.57, "B": -0.2262}
{"smiles": "COc1ccc(OC)c(CN(Cc2ccco2)Cc2[nH]cnc2C)c1.O=C(O)CC(O)(CC(=O)O)C(=O)O", "B": -1.203}
{"smiles": "CC(C)c1nc2c(n1C)CCN(Cc1nc(-c3cccs3)no1)C2", "A": 21.54, "B": 4.847}
{"smiles": "O=C(O)C(F)(F)F.O=C(O)C(F)(F)F.c1ccc(COC[C@@H]2CCC[C@]23CN(Cc2nccs2)CCO3)nc1", "B": 6.424}
{"smiles": "CC(=O)c1cnc(NCC2OCCc3ccccc32)nc1C", "stereo": "stereo not given", "A": 0, "B": 7.258}
{"smiles": "CCc1cc(N(C)Cc2[nH]nc3c2CCC3)nc(N2CCOCC2)n1", "A": 9.677}
{"smiles": "CNC(=O)c1nc2c(s1)CCN(C(=O)c1cccc(OC)c1)CC2", "A": 14.29, "B": -14.87}
{"smiles": "Cc1ccsc1CCNC(C)C(=O)NC1CCCC1", "stereo": "stereo not given", "A": 16.67, "B": -0.1082}
{"smiles": "[H][C@@]12OCCN(C(=O)C3CCOCC3)[C@@]1([H])CC[C@@H]2OCC1CC1", "B": -13.81}
{"smiles": "OCc1ccc(CN2CCC(n3cc(-c4ccsc4)nn3)CC2)o1", "A": 8.571, "B": 8.61}
{"smiles": "Cc1nc(CN2C(=O)C[C@@H]3[C@@H]2CCN3Cc2cnn(C)c2)cs1", "A": 21.1}
{"smiles": "Cn1cc(S(=O)(=O)Nc2ccc(Cl)cn2)cc1C(N)=O", "A": 17.74, "B": 20.7}
{"smiles": "Cc1cc(C)cc(OCCN(C)Cc2ccc(S(=O)(=O)N(C)C)o2)c1", "A": 0, "B": 26.13}
{"smiles": "CCN(Cc1ccc(C)o1)C(=O)C(C)n1ccnc1C(C)C", "stereo": "stereo not given", "A": 20.98, "B": -12.78}
{"smiles": "CCCc1nnc(N2CCC(N3CCCCCC3)CC2)o1", "A": 31.11, "B": -32.22}
{"smiles": "COCCN(Cc1ccccn1)C(=O)Nc1cccnc1N1CCCC1", "A": 15.08, "B": 8.105}
{"smiles": "CSCc1nc(CCNC(=O)C2CCCN(C(C)=O)C2)cs1", "stereo": "stereo not given", "A": 10.96, "B": 6.813}
{"smiles": "CCc1noc(CNc2cccc(C(=O)N3CCSCC3)c2)n1", "A": 3.333, "B": -28.44}
{"smiles": "CCOc1cc(=O)n2c(c1C(=O)OCc1ccc(OC)cc1)CCCC2", "A": 13.04}
{"smiles": "CNC(=O)C1CCCCN1C(=O)c1n[nH]c(=O)c2ccccc12", "stereo": "stereo not given", "A": 4.11, "B": 9.492}
{"smiles": "O=C(NCC1(c2cccc(F)c2)CC1)N1CCC2(CCOC2)C1", "stereo": "stereo not given", "A": 6.349, "B": 5.369}